In PMC6368335, “Inhibition of the Staphylococcus aureus c-di-AMP cyclase DacA by direct interaction with the phosphoglucosamine mutase GlmM” (PLoS Pathogens, 2019):
No constants are given. Whether binding was seen depends on the method and setting. Binding calls can cover weak binding; strength is not graded here. Sequences can lack the tags named with a protein.

Experiments:
[1] = biological target: T1, S. aureus phosphoglucosamine mutase GlmM, C-terminally His-tagged (GlmM-His) (S. aureus) (UniProt P0C0V7); test: SEC; E. coli lysates with His-DacACD and GlmM-His mixed (10 min on ice), Ni-NTA, then Superdex 200 10/60 Hiload in 30 mM Tris pH 7.5, 150 mM NaCl; fractions on Coomassie-stained SDS-PAGE
T1 sequence: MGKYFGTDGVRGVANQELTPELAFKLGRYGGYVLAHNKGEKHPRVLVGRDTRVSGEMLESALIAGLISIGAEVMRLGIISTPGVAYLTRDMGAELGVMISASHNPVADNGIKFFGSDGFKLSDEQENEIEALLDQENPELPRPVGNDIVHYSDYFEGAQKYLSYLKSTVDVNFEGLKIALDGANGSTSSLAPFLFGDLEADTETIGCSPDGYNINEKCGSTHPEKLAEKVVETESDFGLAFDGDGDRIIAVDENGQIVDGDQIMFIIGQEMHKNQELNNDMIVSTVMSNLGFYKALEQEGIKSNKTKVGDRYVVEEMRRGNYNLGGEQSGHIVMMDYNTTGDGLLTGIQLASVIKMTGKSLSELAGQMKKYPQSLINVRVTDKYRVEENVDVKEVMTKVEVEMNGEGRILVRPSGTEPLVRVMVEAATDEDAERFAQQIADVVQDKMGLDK

[2] = biological target: T1, S. aureus phosphoglucosamine mutase GlmM, C-terminally His-tagged (GlmM-His) (S. aureus); test: pull-down; 50 uM tag-less DacACD and 50 uM GlmM-His mixed in 30 mM Tris pH 7.5, 150 mM NaCl, 10 min on ice; Ni-NTA column, wash with 10 mM imidazole, elution with 500 mM imidazole; Coomassie-stained SDS-PAGE; both purified

Row | binding [1] | binding [2] | Substance
1 | binds |  | S. aureus His-DacACD (N-terminal His-tag fusion of the DacA catalytic domain) (domain or fragment)
2 |  | binds | S. aureus DacA catalytic domain (DacACD), tag-less (domain or fragment)
